Measurements taken from article PMC13170675, “A Wnt-induced conformational phospho-switch in DVL3 controls association with Frizzled receptors and Wnt/β-catenin signaling” (Science Advances, 2026).

Sequences of proteins named here, by UniProt entry; tags and fusion partners are left off. Residues count along the entry.
UniProt O15169: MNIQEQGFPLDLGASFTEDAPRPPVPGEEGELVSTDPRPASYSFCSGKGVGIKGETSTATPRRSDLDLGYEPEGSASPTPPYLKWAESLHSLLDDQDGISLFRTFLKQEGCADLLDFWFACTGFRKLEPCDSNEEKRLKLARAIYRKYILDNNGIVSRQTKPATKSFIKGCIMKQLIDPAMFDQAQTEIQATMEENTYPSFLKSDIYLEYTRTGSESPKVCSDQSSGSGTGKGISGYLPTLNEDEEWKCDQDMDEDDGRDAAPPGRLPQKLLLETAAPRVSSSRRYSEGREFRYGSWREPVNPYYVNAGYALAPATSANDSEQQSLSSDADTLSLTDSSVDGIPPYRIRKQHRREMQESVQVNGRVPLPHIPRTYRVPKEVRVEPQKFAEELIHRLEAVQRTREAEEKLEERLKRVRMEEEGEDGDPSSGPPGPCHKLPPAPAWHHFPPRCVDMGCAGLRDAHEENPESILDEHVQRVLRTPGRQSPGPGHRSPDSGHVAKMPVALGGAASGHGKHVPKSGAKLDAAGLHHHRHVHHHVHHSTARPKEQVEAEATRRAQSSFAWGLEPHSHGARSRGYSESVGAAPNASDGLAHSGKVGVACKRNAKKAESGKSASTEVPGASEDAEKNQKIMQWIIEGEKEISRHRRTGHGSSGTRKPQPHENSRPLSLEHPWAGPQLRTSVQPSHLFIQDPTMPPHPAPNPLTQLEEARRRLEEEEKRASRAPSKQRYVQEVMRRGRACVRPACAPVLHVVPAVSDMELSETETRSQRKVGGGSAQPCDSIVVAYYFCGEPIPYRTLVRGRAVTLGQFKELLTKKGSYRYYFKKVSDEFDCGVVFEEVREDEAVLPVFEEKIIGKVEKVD
UniProt Q13467, residues 27-585: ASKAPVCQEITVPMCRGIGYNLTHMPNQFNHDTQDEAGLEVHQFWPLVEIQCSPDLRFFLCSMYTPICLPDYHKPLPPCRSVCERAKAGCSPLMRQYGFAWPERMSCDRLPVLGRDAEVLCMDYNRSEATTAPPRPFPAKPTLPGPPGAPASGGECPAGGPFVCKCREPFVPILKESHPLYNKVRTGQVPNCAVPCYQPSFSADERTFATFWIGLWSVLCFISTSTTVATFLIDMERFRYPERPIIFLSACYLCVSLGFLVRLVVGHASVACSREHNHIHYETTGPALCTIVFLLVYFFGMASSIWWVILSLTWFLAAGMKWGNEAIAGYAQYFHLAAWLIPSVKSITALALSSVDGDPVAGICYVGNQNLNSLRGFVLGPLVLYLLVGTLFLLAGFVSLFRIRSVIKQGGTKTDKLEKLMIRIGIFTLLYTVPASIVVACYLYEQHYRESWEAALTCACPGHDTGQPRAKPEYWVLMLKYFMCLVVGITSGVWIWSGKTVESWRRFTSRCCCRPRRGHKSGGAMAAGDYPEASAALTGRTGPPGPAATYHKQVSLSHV
UniProt P34925, residues 26-607: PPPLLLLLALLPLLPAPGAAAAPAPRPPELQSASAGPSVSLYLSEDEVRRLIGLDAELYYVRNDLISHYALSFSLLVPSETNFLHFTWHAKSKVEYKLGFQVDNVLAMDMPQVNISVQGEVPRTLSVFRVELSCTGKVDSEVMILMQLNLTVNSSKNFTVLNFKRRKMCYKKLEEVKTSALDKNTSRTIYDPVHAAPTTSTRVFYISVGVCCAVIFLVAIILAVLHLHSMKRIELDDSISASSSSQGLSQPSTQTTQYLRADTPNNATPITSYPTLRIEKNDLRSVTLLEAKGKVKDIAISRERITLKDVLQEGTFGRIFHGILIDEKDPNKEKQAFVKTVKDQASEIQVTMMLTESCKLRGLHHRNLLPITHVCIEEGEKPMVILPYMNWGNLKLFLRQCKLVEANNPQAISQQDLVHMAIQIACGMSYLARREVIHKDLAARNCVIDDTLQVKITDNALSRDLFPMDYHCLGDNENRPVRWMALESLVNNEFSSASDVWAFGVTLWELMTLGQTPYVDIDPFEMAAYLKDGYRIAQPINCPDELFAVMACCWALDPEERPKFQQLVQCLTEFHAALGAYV
UniProt O14641: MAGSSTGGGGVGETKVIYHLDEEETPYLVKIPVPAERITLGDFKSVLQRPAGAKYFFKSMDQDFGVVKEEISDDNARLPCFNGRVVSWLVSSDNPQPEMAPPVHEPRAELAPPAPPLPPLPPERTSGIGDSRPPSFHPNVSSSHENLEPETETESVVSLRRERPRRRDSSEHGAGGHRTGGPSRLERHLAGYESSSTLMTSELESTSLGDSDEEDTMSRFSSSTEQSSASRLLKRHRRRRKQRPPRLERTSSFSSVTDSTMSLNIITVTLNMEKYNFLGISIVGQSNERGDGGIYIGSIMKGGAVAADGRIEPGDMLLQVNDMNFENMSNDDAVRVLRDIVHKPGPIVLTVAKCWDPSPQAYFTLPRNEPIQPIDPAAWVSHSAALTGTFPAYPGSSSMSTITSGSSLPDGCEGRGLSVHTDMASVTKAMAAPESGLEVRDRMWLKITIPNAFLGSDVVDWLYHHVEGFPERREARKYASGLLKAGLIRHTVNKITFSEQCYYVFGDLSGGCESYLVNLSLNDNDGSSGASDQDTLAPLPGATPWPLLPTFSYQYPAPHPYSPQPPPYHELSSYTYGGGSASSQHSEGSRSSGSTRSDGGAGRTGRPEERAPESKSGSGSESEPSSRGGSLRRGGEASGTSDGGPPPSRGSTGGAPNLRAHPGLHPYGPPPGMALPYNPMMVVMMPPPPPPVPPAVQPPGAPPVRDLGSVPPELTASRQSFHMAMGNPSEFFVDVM
UniProt O95271: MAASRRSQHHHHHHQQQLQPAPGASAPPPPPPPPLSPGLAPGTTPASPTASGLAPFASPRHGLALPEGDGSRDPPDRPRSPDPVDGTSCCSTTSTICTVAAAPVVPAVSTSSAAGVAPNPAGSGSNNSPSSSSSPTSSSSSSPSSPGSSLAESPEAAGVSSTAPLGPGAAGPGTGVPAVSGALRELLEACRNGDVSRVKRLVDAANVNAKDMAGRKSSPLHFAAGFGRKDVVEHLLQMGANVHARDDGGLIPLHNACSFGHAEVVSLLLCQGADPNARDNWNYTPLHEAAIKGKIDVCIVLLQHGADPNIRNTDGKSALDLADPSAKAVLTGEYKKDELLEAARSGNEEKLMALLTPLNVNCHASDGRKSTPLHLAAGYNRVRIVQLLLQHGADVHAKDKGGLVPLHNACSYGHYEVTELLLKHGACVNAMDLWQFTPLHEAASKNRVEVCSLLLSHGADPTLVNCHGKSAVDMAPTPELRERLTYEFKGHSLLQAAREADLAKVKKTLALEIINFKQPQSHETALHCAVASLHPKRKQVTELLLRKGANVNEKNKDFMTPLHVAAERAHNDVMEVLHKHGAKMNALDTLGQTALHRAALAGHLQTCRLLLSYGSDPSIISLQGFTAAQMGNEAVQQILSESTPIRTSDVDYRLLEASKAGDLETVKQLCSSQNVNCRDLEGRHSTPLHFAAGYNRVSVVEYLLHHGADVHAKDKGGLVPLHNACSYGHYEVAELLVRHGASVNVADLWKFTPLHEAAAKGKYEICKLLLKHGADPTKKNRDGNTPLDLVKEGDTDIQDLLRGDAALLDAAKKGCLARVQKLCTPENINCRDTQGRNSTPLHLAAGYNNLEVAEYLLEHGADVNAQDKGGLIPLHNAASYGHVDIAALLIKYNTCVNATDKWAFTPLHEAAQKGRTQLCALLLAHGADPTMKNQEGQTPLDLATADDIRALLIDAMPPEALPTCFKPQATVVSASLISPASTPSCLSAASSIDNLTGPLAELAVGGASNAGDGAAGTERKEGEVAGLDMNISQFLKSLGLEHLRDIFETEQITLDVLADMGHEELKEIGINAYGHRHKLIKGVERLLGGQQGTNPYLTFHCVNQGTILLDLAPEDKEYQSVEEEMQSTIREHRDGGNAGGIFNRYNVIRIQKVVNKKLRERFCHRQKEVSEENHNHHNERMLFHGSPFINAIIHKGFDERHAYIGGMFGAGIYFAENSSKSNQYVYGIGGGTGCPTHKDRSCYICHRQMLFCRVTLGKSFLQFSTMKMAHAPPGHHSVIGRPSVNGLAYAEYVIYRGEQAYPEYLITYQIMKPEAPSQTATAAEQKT
UniProt Q68DV7, residues 24-783: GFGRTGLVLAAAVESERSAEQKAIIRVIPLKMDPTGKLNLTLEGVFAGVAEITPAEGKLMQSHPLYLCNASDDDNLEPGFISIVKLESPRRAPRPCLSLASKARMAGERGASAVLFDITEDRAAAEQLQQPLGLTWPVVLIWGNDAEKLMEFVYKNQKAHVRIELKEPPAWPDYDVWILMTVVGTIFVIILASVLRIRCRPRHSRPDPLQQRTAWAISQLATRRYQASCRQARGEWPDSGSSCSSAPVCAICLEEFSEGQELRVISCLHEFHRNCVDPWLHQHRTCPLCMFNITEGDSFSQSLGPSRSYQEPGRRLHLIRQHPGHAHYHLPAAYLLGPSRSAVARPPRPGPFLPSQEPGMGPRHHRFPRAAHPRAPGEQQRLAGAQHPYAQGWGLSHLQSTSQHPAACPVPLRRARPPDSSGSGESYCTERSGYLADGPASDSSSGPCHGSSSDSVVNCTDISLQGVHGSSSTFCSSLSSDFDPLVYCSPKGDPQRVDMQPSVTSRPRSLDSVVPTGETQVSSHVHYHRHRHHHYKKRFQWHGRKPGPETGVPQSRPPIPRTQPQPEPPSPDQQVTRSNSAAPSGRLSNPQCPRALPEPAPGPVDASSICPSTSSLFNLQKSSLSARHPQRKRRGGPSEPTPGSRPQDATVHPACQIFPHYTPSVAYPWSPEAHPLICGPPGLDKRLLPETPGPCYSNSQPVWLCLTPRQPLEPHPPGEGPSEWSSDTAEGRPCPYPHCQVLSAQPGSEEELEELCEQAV
UniProt P49674: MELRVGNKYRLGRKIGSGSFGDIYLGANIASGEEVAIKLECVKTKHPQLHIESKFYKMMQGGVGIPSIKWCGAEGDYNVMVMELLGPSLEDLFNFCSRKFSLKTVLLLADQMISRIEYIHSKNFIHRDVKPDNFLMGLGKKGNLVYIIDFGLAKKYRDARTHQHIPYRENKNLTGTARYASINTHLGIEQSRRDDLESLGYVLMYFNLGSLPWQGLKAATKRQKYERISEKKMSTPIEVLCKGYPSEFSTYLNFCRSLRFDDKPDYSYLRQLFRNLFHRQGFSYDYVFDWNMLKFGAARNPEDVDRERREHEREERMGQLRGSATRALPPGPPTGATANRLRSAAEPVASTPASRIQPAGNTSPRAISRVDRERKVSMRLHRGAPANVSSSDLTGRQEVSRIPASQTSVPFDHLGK
UniProt Q9ULT6, residues 56-936: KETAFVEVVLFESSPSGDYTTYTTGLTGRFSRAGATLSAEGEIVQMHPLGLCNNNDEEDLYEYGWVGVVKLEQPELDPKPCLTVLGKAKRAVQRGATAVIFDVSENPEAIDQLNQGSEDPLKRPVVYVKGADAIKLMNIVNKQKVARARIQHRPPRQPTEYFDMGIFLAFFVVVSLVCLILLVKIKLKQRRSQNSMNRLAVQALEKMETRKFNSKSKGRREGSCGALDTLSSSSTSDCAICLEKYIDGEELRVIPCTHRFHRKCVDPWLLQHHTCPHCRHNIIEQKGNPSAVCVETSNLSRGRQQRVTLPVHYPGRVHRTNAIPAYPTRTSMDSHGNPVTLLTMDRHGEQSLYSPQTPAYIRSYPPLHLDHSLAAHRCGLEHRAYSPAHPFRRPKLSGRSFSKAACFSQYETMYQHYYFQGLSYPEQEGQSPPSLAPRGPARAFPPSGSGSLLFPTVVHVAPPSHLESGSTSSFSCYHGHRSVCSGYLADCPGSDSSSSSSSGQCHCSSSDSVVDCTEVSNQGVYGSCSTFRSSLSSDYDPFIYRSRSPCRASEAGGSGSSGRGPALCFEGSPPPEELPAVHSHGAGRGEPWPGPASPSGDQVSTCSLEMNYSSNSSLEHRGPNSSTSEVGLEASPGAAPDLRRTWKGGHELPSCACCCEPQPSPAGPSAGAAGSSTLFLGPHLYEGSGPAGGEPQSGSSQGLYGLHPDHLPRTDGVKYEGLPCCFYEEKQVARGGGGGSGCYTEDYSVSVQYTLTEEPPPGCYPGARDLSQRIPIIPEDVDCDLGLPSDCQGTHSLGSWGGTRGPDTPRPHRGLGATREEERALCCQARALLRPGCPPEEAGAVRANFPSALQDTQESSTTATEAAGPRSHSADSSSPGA

Key:
TurboID-DVL3 WT (human) = target: T1, TurboID-DVL3 WT (human) (UniProt Q92997); experiment: proximity labelling; TurboID fused N-terminally to DVL3 in Flp-In T-REx 293 cells, doxycycline 24 hours, 50 μM biotin 30 min, streptavidin pull-down, LC-MS/MS (DIA); compared with TurboID alone and with WT
T1 sequence: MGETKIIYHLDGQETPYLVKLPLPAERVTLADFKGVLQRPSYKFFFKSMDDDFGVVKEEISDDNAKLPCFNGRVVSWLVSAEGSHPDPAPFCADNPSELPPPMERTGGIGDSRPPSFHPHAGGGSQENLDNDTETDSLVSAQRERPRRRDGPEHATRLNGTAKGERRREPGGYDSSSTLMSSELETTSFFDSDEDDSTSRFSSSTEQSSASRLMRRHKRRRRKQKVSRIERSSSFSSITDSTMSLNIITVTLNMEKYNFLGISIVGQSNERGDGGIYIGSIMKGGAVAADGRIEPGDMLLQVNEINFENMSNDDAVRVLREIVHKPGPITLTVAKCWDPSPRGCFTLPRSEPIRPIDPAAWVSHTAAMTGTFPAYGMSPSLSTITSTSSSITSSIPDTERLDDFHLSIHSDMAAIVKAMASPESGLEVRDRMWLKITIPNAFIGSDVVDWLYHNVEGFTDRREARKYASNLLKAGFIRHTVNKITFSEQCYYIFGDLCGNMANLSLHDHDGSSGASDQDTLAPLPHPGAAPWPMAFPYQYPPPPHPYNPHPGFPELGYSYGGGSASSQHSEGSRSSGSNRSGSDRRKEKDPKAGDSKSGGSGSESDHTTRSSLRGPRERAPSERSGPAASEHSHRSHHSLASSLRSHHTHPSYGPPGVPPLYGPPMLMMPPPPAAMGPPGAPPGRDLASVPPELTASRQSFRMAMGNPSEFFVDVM

[1] = target: TurboID-DVL3 Δ S/T (human) (UniProt Q92997); experiment: as above

AXIN1 (from UniProt O15169 1-862)
binding (TurboID-DVL3 WT (human)): binds | binding [1]: binds

FZD5 (from UniProt Q13467 27-585) (receptor)
binding [1]: binds

RYK (from UniProt P34925 26-607) (receptor)
binding [1]: binds

DVL2 (from UniProt O14641 1-736)
binding (TurboID-DVL3 WT (human)): binds | binding [1]: binds

TNKS (from UniProt O95271 1-1327) (enzyme)
binding (TurboID-DVL3 WT (human)): binds | binding [1]: binds

RNF43 (from UniProt Q68DV7 24-783) (enzyme)
binding [1]: binds

CK1ε (CSNK1E) (from UniProt P49674 1-416) (enzyme)
binding (TurboID-DVL3 WT (human)): binds | binding [1]: binds

ZNRF3 (from UniProt Q9ULT6 56-936) (enzyme)
binding [1]: binds

CCDC88C/Daple (from UniProt Q9P219 1-2028)
binding (TurboID-DVL3 WT (human)): binds | binding [1]: binds

B1: VANGL1 (protein, UniProt Q8TAA9 1-524)
chain: MDTESTYSGYSYYSSHSKKSHRQGERTRERHKSPRNKDGRGSEKSVTIQPPTGEPLLGNDSTRTEEVQDDNWGETTTAITGTSEHSISQEDIARISKDMEDSVGLDCKRYLGLTVASFLGLLVFLTPIAFILLPPILWRDELEPCGTICEGLFISMAFKLLILLIGTWALFFRKRRADMPRVFVFRALLLVLIFLFVVSYWLFYGVRILDSRDRNYQGIVQYAVSLVDALLFIHYLAIVLLELRQLQPMFTLQVVRSTDGESRFYSLGHLSIQRAALVVLENYYKDFTIYNPNLLTASKFRAAKHMAGLKVYNVDGPSNNATGQSRAMIAAAARRRDSSHNELYYEEAEHERRVKKRKARLVVAVEEAFIHIQRLQAEEQQKAPGEVMDPREAAQAIFPSMARALQKYLRITRQQNYHSMESILQHLAFCITNGMTPKAFLERYLSAGPTLQYDKDRWLSTQWRLVSDEAVTNGLRDGIVFVLKCLDFSLVVNVKKIPFIILSEEFIDPKSHKFVLRLQSETSV
binding (TurboID-DVL3 WT (human)): binds | binding [1]: binds

B2: FZD3 (receptor, UniProt Q9NPG1 23-666)
chain: HSLFSCEPITLRMCQDLPYNTTFMPNLLNHYDQQTAALAMEPFHPMVNLDCSRDFRPFLCALYAPICMEYGRVTLPCRRLCQRAYSECSKLMEMFGVPWPEDMECSRFPDCDEPYPRLVDLNLAGEPTEGAPVAVQRDYGFWCPRELKIDPDLGYSFLHVRDCSPPCPNMYFRREELSFARYFIGLISIICLSATLFTFLTFLIDVTRFRYPERPIIFYAVCYMMVSLIFFIGFLLEDRVACNASIPAQYKASTVTQGSHNKACTMLFMILYFFTMAGSVWWVILTITWFLAAVPKWGSEAIEKKALLFHASAWGIPGTLTIILLAMNKIEGDNISGVCFVGLYDVDALRYFVLAPLCLYVVVGVSLLLAGIISLNRVRIEIPLEKENQDKLVKFMIRIGVFSILYLVPLLVVIGCYFYEQAYRGIWETTWIQERCREYHIPCPYQVTQMSRPDLILFLMKYLMALIVGIPSVFWVGSKKTCFEWASFFHGRRKKEIVNESRQVLQEPDFAQSLLRDPNTPIIRKSRGTSTQGTSTHASSTQLAMVDDQRSKAGSIHSKVSSYHGSLHRSRDGRYTPCSYRGMEERLPHGSMSRLTDHSRHSSSHRLNEQSRHSSIRDLSNNPMTHITHGTSMNRVIEEDGTSA
binding [1]: binds

B3: FZD6 (receptor, UniProt O60353 19-706)
chain: HSLFTCEPITVPRCMKMAYNMTFFPNLMGHYDQSIAAVEMEHFLPLANLECSPNIETFLCKAFVPTCIEQIHVVPPCRKLCEKVYSDCKKLIDTFGIRWPEELECDRLQYCDETVPVTFDPHTEFLGPQKKTEQVQRDIGFWCPRHLKTSGGQGYKFLGIDQCAPPCPNMYFKSDELEFAKSFIGTVSIFCLCATLFTFLTFLIDVRRFRYPERPIIYYSVCYSIVSLMYFIGFLLGDSTACNKADEKLELGDTVVLGSQNKACTVLFMLLYFFTMAGTVWWVILTITWFLAAGRKWSCEAIEQKAVWFHAVAWGTPGFLTVMLLAMNKVEGDNISGVCFVGLYDLDASRYFVLLPLCLCVFVGLSLLLAGIISLNHVRQVIQHDGRNQEKLKKFMIRIGVFSGLYLVPLVTLLGCYVYEQVNRITWEITWVSDHCRQYHIPCPYQAKAKARPELALFMIKYLMTLIVGISAVFWVGSKKTCTEWAGFFKRNRKRDPISESRRVLQESCEFFLKHNSKVKHKKKHYKPSSHKLKVISKSMGTSTGATANHGTSAVAITSHDYLGQETLTEIQTSPETSMREVKADGASTPRLREQDCGEPASPAASISRLSGEQVDGKGQAGSVSESARSEGRISPKSDITDTGLAQSNNLQVPSSSEPSSLKGSTSLLVHPVSGVRKEQGGGCHSDT
binding [1]: binds

B4: TNKS2 (enzyme, UniProt Q9H2K2 1-1166)
chain: MSGRRCAGGGAACASAAAEAVEPAARELFEACRNGDVERVKRLVTPEKVNSRDTAGRKSTPLHFAAGFGRKDVVEYLLQNGANVQARDDGGLIPLHNACSFGHAEVVNLLLRHGADPNARDNWNYTPLHEAAIKGKIDVCIVLLQHGAEPTIRNTDGRTALDLADPSAKAVLTGEYKKDELLESARSGNEEKMMALLTPLNVNCHASDGRKSTPLHLAAGYNRVKIVQLLLQHGADVHAKDKGDLVPLHNACSYGHYEVTELLVKHGACVNAMDLWQFTPLHEAASKNRVEVCSLLLSYGADPTLLNCHNKSAIDLAPTPQLKERLAYEFKGHSLLQAAREADVTRIKKHLSLEMVNFKHPQTHETALHCAAASPYPKRKQICELLLRKGANINEKTKEFLTPLHVASEKAHNDVVEVVVKHEAKVNALDNLGQTSLHRAAYCGHLQTCRLLLSYGCDPNIISLQGFTALQMGNENVQQLLQEGISLGNSEADRQLLEAAKAGDVETVKKLCTVQSVNCRDIEGRQSTPLHFAAGYNRVSVVEYLLQHGADVHAKDKGGLVPLHNACSYGHYEVAELLVKHGAVVNVADLWKFTPLHEAAAKGKYEICKLLLQHGADPTKKNRDGNTPLDLVKDGDTDIQDLLRGDAALLDAAKKGCLARVKKLSSPDNVNCRDTQGRHSTPLHLAAGYNNLEVAEYLLQHGADVNAQDKGGLIPLHNAASYGHVDVAALLIKYNACVNATDKWAFTPLHEAAQKGRTQLCALLLAHGADPTLKNQEGQTPLDLVSADDVSALLTAAMPPSALPSCYKPQVLNGVRSPGATADALSSGPSSPSSLSAASSLDNLSGSFSELSSVVSSSGTEGASSLEKKEVPGVDFSITQFVRNLGLEHLMDIFEREQITLDVLVEMGHKELKEIGINAYGHRHKLIKGVERLISGQQGLNPYLTLNTSGSGTILIDLSPDDKEFQSVEEEMQSTVREHRDGGHAGGIFNRYNILKIQKVCNKKLWERYTHRRKEVSEENHNHANERMLFHGSPFVNAIIHKGFDERHAYIGGMFGAGIYFAENSSKSNQYVYGIGGGTGCPVHKDRSCYICHRQLLFCRVTLGKSFLQFSAMKMAHSPPGHHSVTGRPSVNGLALAEYVIYRGEQAYPEYLITYQIMRPEGMVDG
binding (TurboID-DVL3 WT (human)): binds | binding [1]: binds

Results are given in words; binding and its absence hold for the method and conditions named. Binding seen in cells or lysates may run through a third protein. Here binding means that the protein was enriched with, or labelled near, the bait; the list need not be complete.
